Source: patent US20030158378A1
These are yes or no findings as the source states them, for the method shown. Binding seen in cells or lysates may run through a third protein. Some binding calls cover weakened binding; strength is not graded here. Sequences can lack the tags named with a protein.

Protein sequences, listed by entry. Tags and fused reporters are not part of them. Residues count along the entry.
UniProt P22004, residues 382-513: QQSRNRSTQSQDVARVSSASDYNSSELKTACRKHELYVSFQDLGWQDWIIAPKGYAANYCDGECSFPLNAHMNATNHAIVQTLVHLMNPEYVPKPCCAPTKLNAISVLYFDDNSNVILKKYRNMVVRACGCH
UniProt P22003, residues 317-454: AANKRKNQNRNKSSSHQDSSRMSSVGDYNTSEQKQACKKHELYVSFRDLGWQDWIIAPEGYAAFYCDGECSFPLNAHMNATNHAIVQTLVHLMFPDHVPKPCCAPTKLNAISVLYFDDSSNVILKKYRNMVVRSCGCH

How the values were obtained:
BMP2 [1] = molecular target: T1, BMP2 (UniProt P12643); assay: co-immunoprecipitation: mCHL2-FLAG mixed with BMP2, anti-mCHL2 antiserum, protein A agarose beads, western blot for BMP2
T1 sequence (looked up): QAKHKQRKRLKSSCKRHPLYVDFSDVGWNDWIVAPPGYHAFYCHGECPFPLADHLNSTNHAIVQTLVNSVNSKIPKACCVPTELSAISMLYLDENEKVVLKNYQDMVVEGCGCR

BMP6 [2] = molecular target: BMP6 (UniProt P22004); assay: co-immunoprecipitation: mCHL2-FLAG mixed with BMP6, anti-mCHL2 antiserum, protein A agarose beads, western blot for BMP6
BMP4 [3] = molecular target: T2, BMP4 (UniProt P12644); assay: co-immunoprecipitation: mCHL2-FLAG mixed with BMP4, anti-mCHL2 antiserum, protein A agarose beads, western blot for BMP4
T2 sequence (looked up): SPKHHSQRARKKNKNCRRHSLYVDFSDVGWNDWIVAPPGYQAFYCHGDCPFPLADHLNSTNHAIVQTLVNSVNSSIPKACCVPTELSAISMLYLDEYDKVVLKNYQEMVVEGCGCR

GDF5 (BMP14) [4] = molecular target: T3, GDF5 (BMP14) (UniProt P43026); assay: co-immunoprecipitation: mCHL2-FLAG mixed with GDF5 (BMP14), anti-mCHL2 antiserum, protein A agarose beads, western blot for GDF5
T3 sequence (looked up): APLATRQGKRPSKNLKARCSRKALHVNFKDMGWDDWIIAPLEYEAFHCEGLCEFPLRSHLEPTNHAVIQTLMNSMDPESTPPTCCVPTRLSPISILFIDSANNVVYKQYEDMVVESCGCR

BMP2 [5] = molecular target: T1, BMP2; assay: co-immunoprecipitation with anti-mCHL2 antiserum and protein A agarose, Western blot; mCHL2-FLAG at 600 ng/ml
BMP4 [6] = molecular target: T2, BMP4; assay: as above
GDF5 (BMP14) [7] = molecular target: T3, GDF5 (BMP14); assay: as above
BMP5 [8] = molecular target: BMP5 (UniProt P22003); assay: as above
BMP6 [9] = molecular target: BMP6 (UniProt P22004); assay: as above
BMP5 [10] = molecular target: BMP5 (UniProt P22003); assay: co-immunoprecipitation: mCHL2-FLAG mixed with BMP5, anti-mCHL2 antiserum, protein A agarose beads, western blot for BMP5

Measured: binding

B1: FLAG-tagged murine CHL2 polypeptide (mCHL2-FLAG) (protein, not shown: small tags and cut ends)
chain: LSRSGKVCLFGEKIYTPGQSWHPYLEPQGTIYCVRCTCSENGHVNCYRLRCPPLHCSQPVMEPQQCCPRCVDPHVPSGLRVPLKSCQLNETTYQHGEIFSAQELFPARLSNQCVLCSCIEGHTYCGLMTCPEPSCPTTLPLPDSCCQTCKDRTTESSTEENLTQLQHGERHSQDPCSERRGPSTPAPTSLSSPLGFIPRHFQSVGMGSTTIKIILKEKHKKACTHNGKTYSHGEVWHPTVLSFGPMPCILCTCIDGYQDCHRVTCPTQYPCSQPKKVAGKCCKICPEDEAEDDHSEVISTRCPKVPGQFQVYTLASPSPDSLHRFVLEHEASDQVEMYIWKLVKGIYHLVQIKRVRKQDFQKEAQNFRLLTGTHEGYWTVFLAQTPELKVTASPDKVTKTL
binds: all assays above
